Data from publication PMC12040169 (PLOS Biology, 2025).
The list shows a part of the results.

These molecules were tested on T1, CTL2-GFP (C. trachomatis L2/434/Bu, GFP-expressing). Settings: bulk GFP, single well; 28.5 h, 10 µM; inhibitor.
T1 construct: L2/434/Bu, GFP-expressing
Parameters: species or system HeLa; Intracellular C. trachomatis growth in HeLa cells, bulk GFP fluorescence relative to DMSO

| SMILES | % of control remaining [%] |
| --- | --- |
| O=C1NC(=O)C(CCCCN2CCC(Cc3ccccc3)CC2)N1 (stereo not drawn) [CBK126435] | 93.0237 |
| CC1(C)CC(=O)c2cnc3ncnn3c2C1 [CBK007345] | 119.664 |
| CCCCC(C(=O)O)N1C(=O)C2CC=C(Cl)CC2C1=O (stereo not drawn) [CBK286536] | 136.978 |
| O=C(NO)Nc1cc(Cl)cc(Cl)c1 [CBK016430] | 123.613 |
| Cc1ccc2c(C)c(C(=O)Nc3sc4c(c3C(=O)NCc3ccco3)CCC4)oc2c1 [CBK267662] | 129.941 |
| CC(=O)NC(O)C(=O)c1cccs1 (stereo not drawn) [CBK027756] | 81.282 |
| COc1cccc(Cn2c(C3CCNCC3)cc3cccnc32)c1 [CBK285076] | 143.043 |
| O=S(=O)(NCCn1c(-c2ccncc2)nc2ccccc21)c1ccccc1 [CBK288578] | 112.266 |
| Cc1ccc(S(=O)(=O)NC(CC(=O)Nc2ccc(Br)cc2)c2ccccc2)cc1 (stereo not drawn) [CBK265110] | 100.568 |
| CC1CCN(C(=O)c2cc(-c3ccco3)[nH]n2)CC1 [CBK296648] | 148.27 |
| Cc1cc(=O)oc2ccc(OCC(=O)N(Cc3ccc(F)cc3)Cc3ccco3)cc12 [CBK266639] | 114.829 |
| c1cnn(CCNc2nc3nonc3nc2N2CCCCC2)c1 [CBK306740] | 108.364 |
| C(=N\N1CCOCC1)/c1ccc2c(c1)OCO2 [CBK026446] | 99.7988 |
| CCN1CCCC2(CCN(C(=O)c3ccoc3)C2)C1 (stereo not drawn) [CBK132832] | 51.6374 |
| Cc1cccc(C2(CNC(=O)C3COCCO3)CCCCC2)c1 (stereo not drawn) [CBK305087] | 103.137 |
| Cc1cccc(CN2CC[C@@H]3[C@H](C2)[C@@H](c2ccsc2)CN3C(=O)c2ccccc2F)c1 [CBK285659] | 95.0593 |
| CC(=O)Nc1cccc(-c2cnc3[nH]c(=O)n([C@H](C)c4ccccc4)c3n2)c1 [CBK064188] | 91.3379 |
| O=C(O)CCc1ccc(S(=O)(=O)Nc2ccc(N3CCCC3=O)cc2)cc1 [CBK295647] | 150.616 |
| CN1C(=O)c2ccccc2C(=O)[C@@]2(C)CN(CC(C)(C)C)C[C@@H]12 [CBK283481] | 110.342 |
| N#CCCn1cc(C(=O)Nc2ccc(C(=O)O)cc2)c(-c2cc3ccccc3o2)n1 [CBK267866] | 123.569 |
| CCN(CC)CCCNC(=O)N1CCN(Cc2ccccc2)CC1 [CBK155655] | 123.307 |

| SMILES | % of control remaining [%] |
| --- | --- |
| CCOc1ccc(C(N)CC(=O)O)cc1 (stereo not drawn) [CBK262933C] | 127.439 |
| O=C(CCCOc1ccc(Cl)cc1Cl)NO [CBK288436] | 123.381 |
| Cc1cc(C)cc(Oc2coc3c(CN4CCOCC4)c(O)ccc3c2=O)c1 [CBK263908] | 110.159 |
| CCN1CCN(c2ccc(NC(=O)c3cccnc3)cc2Cl)CC1 [CBK266629C] | 177.15 |
| CC(=O)Nc1ccc(C2=NC3SC(c4ccc(NC(C)=O)cc4)=NC3S2)cc1 (stereo not drawn) [CBK019799] | 136.612 |
| O=C(Nc1ccccc1OC1CCNCC1)c1ccccc1 [CBK050238T] | 112.466 |
| c1ccc(C(NCc2cnc(C3CCC3)s2)C2CCCC2)nc1 (stereo not drawn) [CBK304022] | 123.926 |
| CC[C@H](Cn1nc(-c2cccs2)ccc1=O)NC(=O)C(C)C [CBK284296] | 99.3117 |
| Cc1c(Cl)c([N+](=O)[O-])nn1CCCC(=O)Nc1cc(Br)ccc1O [CBK268875] | 134.719 |
| CC1CCCN(CC(O)c2ccc3c(c2)CCCN3C(=O)C2CC2)C1 (stereo not drawn) [CBK282136] | 136.009 |
| COc1cccc(OCC(O)CN2CCN(Cc3ccccc3)CC2)c1 (stereo not drawn) [CBK074856C] | 119.405 |
| CCOc1ccc(-c2cn(C(=O)Nc3ccccc3)nc2N)cc1 [CBK267317] | 150.533 |
| Cc1cc(C(=O)Nc2nnc(Cc3ccccc3)s2)c2ccccc2n1 [CBK295607] | 122.694 |
| CC(NC(=O)CC(F)(F)F)c1nc(-c2ccncc2)cs1 (stereo not drawn) [CBK306370] | 136.175 |
| Fc1c(CN2CCOCC2)cccc1CN1CCOCC1 [CBK085967] | 138.286 |
| COc1ccc(OC)c(C(C)NC(=O)C2CCN(CCc3cccs3)CC2)c1 (stereo not drawn) [CBK148766] | 101.514 |
| Cc1c(CNc2nnc(C(C)(C)C)o2)cnn1C [CBK306439] | 76.8669 |
| Cc1nccn1-c1ccc(NC(=O)c2ccn(C(F)F)n2)cc1 [CBK281410] | 96.5141 |
| CN1CCN(c2cnn(CCCOc3ccccc3)c(=O)c2)CC1 [CBK307203] | 115.854 |
| CCc1nn(CC(=O)NCC2CC2)c(=O)c2cc3ccsc3n12 [CBK284129] | 123.751 |
| CC(=O)N1CCCC(c2nc(-c3ccncc3)ncc2-c2ccccc2)C1 (stereo not drawn) [CBK291110] | 152.877 |

| SMILES | % of control remaining [%] |
| --- | --- |
| COCCN(Cc1ccccc1C)C(=O)C1CCc2nn(C)c(=O)n2C1 (stereo not drawn) [CBK306934] | 156.362 |
| CCN(CC)C(=O)C1CCCN(C(=O)Nc2ccc3c(c2)OCCO3)C1 (stereo not drawn) [CBK156135] | 100 |
| CC(C)(C)c1cc(CN(Cc2cc(C(C)(C)C)c(O)c(C(C)(C)C)c2)C2CCCCC2)cc(C(C)(C)C)c1O [CBK261996] | 99.7254 |
| NCCCNC(=O)c1cc2ccccc2[nH]1 [CBK267639] | 117.752 |
| CCOC(=O)N1CCN(S(=O)(=O)c2ccc3c(c2)oc(=O)n3C)CC1 [CBK304667] | 61.5978 |
| COc1ccccc1-c1ccc(CN2CCC(NC(C)=O)(c3ccc(F)cc3)CC2)cc1 [CBK286349] | 124.378 |
| O=C(O)c1ccc(CN2C(=O)c3ccc(C(=O)O)cc3C2=O)cc1 [CBK262823] | 127.379 |
| CC(C)(Oc1ccc(F)cc1)C(=O)N1CCC(C(=O)NCCc2ccccc2)C1 (stereo not drawn) [CBK285702] | 113.945 |
| CCCC/C=C/c1cncc(NCc2ccc(OC)cc2)n1 [CBK037933] | 161.639 |
| COC1C(O)C(CO)OC1n1cc(I)c(N)nc1=O (stereo not drawn) [CBK201296] | 135.97 |
| O=C(NC1CCCC1)c1ccnc2ccccc12 [CBK200237] | 114.075 |
| O=C(Cc1ccccc1)N1CCN(CCCc2ccccc2)CC1 [CBK263451G] | 100 |
| Cc1ccc(-n2nc(C(=O)NC3(C#N)CCSC3)cc2C)cc1 (stereo not drawn) [CBK306403] | 147.129 |
| Cc1cc(N(C)CCOc2ccccc2F)nc(N)n1 [CBK305969] | 118.761 |
| Cc1ccn2cc(-c3ccc4c(c3)CC(C)N4S(C)(=O)=O)nc2c1 (stereo not drawn) [CBK285183] | 120.987 |
| Oc1ccc(-c2oncc2-c2ccccc2)c(O)c1 [CBK288228] | 119.252 |
| Cc1ccc(C(=O)Nc2nnn(C)n2)c(Cl)c1 [CBK287856] | 136.887 |
| CC(C)CNc1nc(-c2ccc(F)cc2)cnc1N [CBK063815] | 124.383 |
| Cc1nc2ncnn2c(C)c1CCC(=O)Nc1cccc(CCc2ccncc2)c1 [CBK285557] | 120.59 |
| Cc1ccc(-c2cc(C(F)(F)F)n3ncc(C(=O)NCc4c(C)nn(C)c4C)c3n2)cc1 [CBK293956] | 115.815 |
| Cc1nc2c(c(=O)[nH]1)CN(Cc1cn(C(C)C)c3ccccc13)CC2 [CBK284014] | 135.524 |

| SMILES | % of control remaining [%] |
| --- | --- |
| COC(=O)[C@H]1CN(C(=O)c2cccs2)C[C@@H]1c1ccccc1F [CBK283775] | 129.91 |
| COc1ccc(C(=O)O)cc1N1C(=O)CC(c2c(C)nn(-c3ccccc3)c2N)C1=O (stereo not drawn) [CBK291120] | 94.6284 |
| CC(C)S(=O)(=O)N1CCC(n2c(=O)[nH]c3ccccc32)CC1 [CBK149693] | 86.9001 |
| CC1(C)OC(=O)C(=CNC(CCC(=O)O)C(=O)O)C(=O)O1 (stereo not drawn) [CBK263510] | 112.16 |
| CC(=O)N1C[C@@H](c2ccsc2)[C@@H]2CN(Cc3ccccc3)CC[C@@H]21 [CBK284585] | 93.2848 |
| CN(C)CCNC(=O)c1cccc(Oc2ccccc2)c1 [CBK270310] | 136.73 |
| C=CCn1c(Cc2csc(NC(=O)c3cccc([N+](=O)[O-])c3)n2)n[nH]c1=S [CBK295339] | 143.112 |
| Cc1cccc(-c2ncc(NC(=O)C3CC3)nc2-c2cccnc2)c1 [CBK037134] | 79.539 |
| O=C(CSc1nc2ccccc2c2nc3ccccc3n12)Nc1cccc(Cl)c1 [CBK267872] | 135.408 |
| Cc1cc(-c2nnc(SCC(=O)N3CCCCC3)o2)no1 [CBK268731] | 144.963 |
| CCOC(=O)c1ccc(-n2c(CCC(=O)O)ccc2-c2cccs2)cc1O [CBK266015] | 79.1136 |
| O=C(O)c1cc(S(=O)(=O)N2CCCCC2)ccc1O [CBK286595] | 92.5733 |
| CCOC(=O)N1COC[C@@H]1C(=O)O [CBK010379] | 141.759 |
| COc1cc(C=CC(=O)O)ccc1OCC(=O)N1CCN(CC(=O)NC(C)(C)C)CC1 [CBK296987] | 108.258 |
| CCc1ccc(CN2CCN(C(=O)c3ccncc3)CC2)cc1 [CBK301211G] | 169.996 |
| CCCCSc1cc(C)nc2ncnn12 [CBK021443] | 124.493 |
| C/C(=N/Nc1nc[nH]n1)c1ccc(Cl)c(Cl)c1 [CBK028722] | 129.644 |
| O=C(c1ccc(N2CC=CCC2)nc1)N1CCC(N2CCOCC2)CC1 [CBK307334] | 144.943 |
